Laboratory results reported in patent US11674162B2, “Selective advantage in fermentation” (Ginkgo Bioworks, Inc., priority 2014, dated 2023).
At least one compound was matched to its structure with a doubt left.

Key:
[1] = system: NS110; assay: Growth progress in MOPS defined medium with different nitrogen sources; format: cell-based, Escherichia coli; settings: strain NS110, 0.25 mM as sole nitrogen source
[2] = system: NS109; assay: as above; format: cell-based, Escherichia coli; settings: strain NS109, 0.25 mM as sole nitrogen source

Nc1nc(N)[nH]c(=O)n1 [ammeline, Ammeline]
ammonium chloride concentration giving similar growth [1]: 1.25-1.0 | ammonium chloride concentration giving similar growth [2]: 1.25-1.0
